Assay results reported in paper PMC12214875 (Molecular Cancer Therapeutics, 2025).

Legend:
Experiment in all cases: Cellular viability assay (resazurin, 7 days)
Assay type in all cases: cell-based
GIST430 cells = details: Homo sapiens, 168 h, GIST430 (KIT exon 11 del.560-576), n=2, read-out: Inhibition of viability IC50 ± SD
Description: (§1) Cells were seeded in culture medium supplemented with 15% FCS in 96-well plates with 0.1 × 10^4 cells (GIST48B and Kasumi-1), 0.3 × 10^4 cells (GIST430), or 0.25 × 10^4 cells (GIST430/654) per well. The following day, when cells were about 15% confluent, treatment with serial dilutions of test compounds or DMSO was performed in triplicate. After 7 days, cell viability was determined by adding 10 μL resazurin reagent (R&D Systems, #AR002) per well and fluorescence (544 nm excitation/590 nm emission) was measured after 4 to 5 hours. Fluorescent counts from wells containing medium only were subtracted as background from all cell samples. Cell viability levels from solvent-treated control cells were set as maximum signal (100%) and compound-treated samples were calculated as the percent of control. Fitting of dose–response curves and calculation of IC50 values were performed with nonlinear least squares regression analysis using GraphPad Prism software (RRID: SCR_002798; version 8).

GIST430/654 cells = details: GIST-430/654, 168 h, GIST430/654 (KIT exon 11/13 del.560-576 / V654A), n=2, read-out: Inhibition of viability IC50 ± SD
Description: as §1

GIST48B cells = details: 168 h, GIST48B (KIT wildtype), n=2, read-out: Inhibition of viability IC50 ± SD
Description: as §1

Kasumi-1 cells = details: Homo sapiens, 168 h, Kasumi-1 (KIT exon 17 N822K), n=2, read-out: Inhibition of viability IC50 ± SD
Description: as §1

`Cc1ccc(NC(=O)c2ccc(CN3CCN(C)CC3)cc2)cc1Nc1nccc(-c2cccnc2)n1` [Imatinib] gave an IC50 (GIST430 cells) of 0.018 ± 0.004 µM, an IC50 (GIST430/654 cells) of 1.03 ± 0.168 µM and an IC50 (GIST48B cells) greater than 30 µM. It also gave an IC50 (Kasumi-1 cells) of 0.205 ± 0.005 µM.
